The test has as its target MDM2 (human (endogenous in NB-39-nu)) (UniProt Q00987). In words: affinity purification with mass spectrometry; anti-MDM2 immunoprecipitates from NB-39-nu cells treated with 1 uM PF-477736 (CHK1i) or DMSO for 24 h; band of 100-150 kDa cut from a Coomassie-stained gel and analysed by LC-MS/MS.

By UniProt entry, the sequences of proteins in these tests, tags left out.
UniProt Q00987: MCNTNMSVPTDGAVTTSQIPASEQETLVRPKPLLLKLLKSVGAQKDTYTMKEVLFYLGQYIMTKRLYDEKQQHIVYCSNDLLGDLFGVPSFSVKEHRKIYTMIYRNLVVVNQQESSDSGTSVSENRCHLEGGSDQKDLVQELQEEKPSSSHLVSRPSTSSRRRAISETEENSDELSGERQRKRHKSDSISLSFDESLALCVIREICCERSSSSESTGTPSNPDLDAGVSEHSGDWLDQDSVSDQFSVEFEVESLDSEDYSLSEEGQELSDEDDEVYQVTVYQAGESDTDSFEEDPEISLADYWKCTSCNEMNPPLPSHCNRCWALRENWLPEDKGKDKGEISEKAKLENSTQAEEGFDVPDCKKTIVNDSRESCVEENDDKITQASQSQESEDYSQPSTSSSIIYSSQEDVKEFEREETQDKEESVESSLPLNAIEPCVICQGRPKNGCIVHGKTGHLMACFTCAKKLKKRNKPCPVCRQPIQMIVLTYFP

Results are given in words; binding and its absence hold for the method and conditions named. In cells and extracts the contact can be indirect. These calls come from enrichment with a bait or labelling near it, and not all partners need be listed.

B1: centrosome-associated protein 131 (CEP131) (protein, UniProt Q9UPN4 1-1083)
chain: MKGTRAIGSVPERSPAGVDLSLTGLPPPVSRRPGSAATTKPIVRSVSVVTGSEQKRKVLEATGPGGSQAINNLRRSNSTTQVSQPRSGSPRPTEPTDFLMLFEGSPSGKKRPASLSTAPSEKGATWNVLDDQPRGFTLPSNARSSSALDSPAGPRRKECTVALAPNFTANNRSNKGAVGNCVTTMVHNRYTPSERAPPLKSSNQTAPSLNNIIKAATCEGSESSGFGKLPKNVSSATHSARNNTGGSTGLPRRKEVTEEEAERFIHQVNQATVTIQRWYRHQVQRRGAGAARLEHLLQAKREEQRQRSGEGTLLDLHQQKEAARRKAREEKARQARRAAIQELQQKRALRAQKASTAERGPPENPRETRVPGMRQPAQELSPTPGGTAHQALKANNTGGGLPAAGPGDRCLPTSDSSPEPQQPPEDRTQDVLAQDAAGDNLEMMAPSRGSAKSRGPLEELLHTLQLLEKEPDVLPRPRTHHRGRYAWASEVTTEDDASSLTADNLEKFGKLSAFPEPPEDGTLLSEAKLQSIMSFLDEMEKSGQDQLDSQQEGWVPEAGPGPLELGSEVSTSVMRLKLEVEEKKQAMLLLQRALAQQRDLTARRVKETEKALSRQLQRQREHYEATIQRHLAFIDQLIEDKKVLSEKCEAVVAELKQEDQRCTERVAQAQAQHELEIKKLKELMSATEKARREKWISEKTKKIKEVTVRGLEPEIQKLIARHKQEVRRLKSLHEAELLQSDERASQRCLRQAEELREQLEREKEALGQQERERARQRFQQHLEQEQWALQQQRQRLYSEVAEERERLGQQAARQRAELEELRQQLEESSSALTRALRAEFEKGREEQERRHQMELNTLKQQLELERQAWEAGRTRKEEAWLLNREQELREEIRKGRDKEIELVIHRLEADMALAKEESEKAAESRIKRLRDKYEAELSELEQSERKLQERCSELKGQLGEAEGENLRLQGLVRQKERALEDAQAVNEQLSSERSNLAQVIRQEFEDRLAASEEETRQAKAELATLQARQQLELEEVHRRVKTALARKEEAVSSLRTQHEAAVKRADHLEELLEQHRRPTPSTK
In the case of B1, the binding entry was “binds”.
